PubChem BioAssay AID1259405, NCATS | 2018

- Purpose: 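Knock-downs that lift recombinant protein yield in hamster ovary cells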 (primary screen)
- Cell system: Chinese hamster CHO-K1 ovary cells with stable secreted eGFP expression
- Reagent: single siRNA against mouse genes, 0.8 pmol siRNA per well (2 µl of 400 nM stock)
- Time to read-out: 3 days
- Measured: 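Percent of the per-plate non-targeting control median for intracellular GFP per well by laser scanning cytometry and for cell viability by ATP luminescence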
- Scale: GFP, % of control: higher = more GFP per well, higher productivity; viability (ATP), % of control: higher = more viable cells (more ATP)
- Active means: 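Called active when intracellular GFP, relative to negative control, is at or above 120%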
The deposit covers about 50,000 reagents; shown is a random part of them. About 4,000 of them (8%) count as active. 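Mouse siRNA library applied to hamster cells; one well for each siRNA.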 A number with no mark means an inactive call. Reagents against one gene are numbered here.

gene	siRNA no.	GFP, % of control	viability (ATP), % of control
Or14j6 (GeneID 258374)	1	51.7	63.5
Or14j6 (GeneID 258374)	2	65.3	83.1
Or14j6 (GeneID 258374)	3	82.2	87.8
Or8g4 (GeneID 258086)	1	58.6	76.1
Or8g4 (GeneID 258086)	2	104	53.3
Or8g4 (GeneID 258086)	3	74.2	77.8
Hey1 (GeneID 15213)	1	54.7	34.1
Hey1 (GeneID 15213)	2	77.8	63.2
Minpp1 (GeneID 17330)	1	107	86.7
Minpp1 (GeneID 17330)	2	70.1	57.6
Minpp1 (GeneID 17330)	3	65.7	81.2
Arid1a (GeneID 93760)	1	87.5	117
Arid1a (GeneID 93760)	2	22.4	57.8
Arid1a (GeneID 93760)	3	57.9	71.2
Psmd5 (GeneID 66998)	1	39	43.9
Psmd5 (GeneID 66998)	2	55.9	60.2
Psmd5 (GeneID 66998)	3	69.2	73.2
Cherp (GeneID 27967)	1	102	87.1
Cherp (GeneID 27967)	2	61.9	66.8
Cherp (GeneID 27967)	3	99.9	88.3
Abhd15 (GeneID 67477)	1	83.7	76.6
Abhd15 (GeneID 67477)	2	83.7	69.2
Abhd15 (GeneID 67477)	3	90	69.7
Zfp59 (GeneID 22717)	1	50.8	96.4
Zfp59 (GeneID 22717)	2	78.1	83.5
Zfp59 (GeneID 22717)	3	57.1	86.1
Lingo1 (GeneID 235402)	1	149 (active)	97.8
Lingo1 (GeneID 235402)	2	97.8	68.4
Lingo1 (GeneID 235402)	3	150 (active)	114
Ca15 (GeneID 80733)	1	59	47.1
Ca15 (GeneID 80733)	2	66.9	61.8
Ca15 (GeneID 80733)	3	61	74.5
Or2c1 (GeneID 18312)	1	94.9	67
Or2c1 (GeneID 18312)	2	96.2	65.5
Or2c1 (GeneID 18312)	3	30.8	102

Reagents above called active (2):
gene	siRNA no.	GFP, % of control	viability (ATP), % of control
Lingo1 (GeneID 235402)	1	149 (active)	97.8
Lingo1 (GeneID 235402)	3	150 (active)	114
